# PubChem BioAssay AID1259308 | NCATS – 2017
# Aim: 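Candidate targets for better recombinant protein yield in mammalian cells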 (primary screen)
# Cells: human HEK293 embryonic kidney cells stably expressing firefly luciferase (HEK-CMV-Luc2-Hygro)
# Reagent: single siRNA against human genes, 0.8 pmol siRNA per well
# Timing: 72 h
# Measurement: 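Reporter luminescence and viable-cell signal on separate replicate plates, given as percent of non-targeting control and median/MAD z-scores, plus per-cell luciferase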
# Scale: total luciferase, z-score and total luciferase, % of control: higher = more reporter protein produced; luciferase per cell, z-score: higher = more reporter output per viable cell; viable cells, % of control: higher = more viable cells
# Active means: 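An siRNA counts as active if its total luciferase robust z-score exceeds 3; genes with two or more such siRNAs out of three were retested with fresh siRNAs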
# Calls: active = raised luciferase; inactive = no rise
# The whole screen tested about 59,000 reagents; shown is an unselected part. Of all reagents, about 1,510 (2.6%) got an active call. 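Calls use total luciferase alone and ignore viability, so some active siRNAs may act by altering cell number.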
Target gene,PubChem SID,"total luciferase, z-score","total luciferase, % of control","luciferase per cell, z-score","viable cells, % of control",Call
OR6T1 (GeneID 219874),SID160761383,-0.414,73.6,-0.973,106,inactive
OR6T1 (GeneID 219874),SID160761384,-0.255,76.8,-0.0684,87.4,inactive
OR6T1 (GeneID 219874),SID160761385,-0.3,75.9,-0.701,102,inactive
HPS5 (GeneID 11234),SID160730248,-0.365,74.6,-0.22,88.4,inactive
HPS5 (GeneID 11234),SID160730249,0.438,90.6,0.17,96.8,inactive
HPS5 (GeneID 11234),SID160730250,-0.774,66.5,-0.934,95,inactive
PYHIN1 (GeneID 149628),SID160758851,-1.85,45.1,0.0631,49.6,inactive
PYHIN1 (GeneID 149628),SID160758852,-0.573,70.5,-0.358,86.6,inactive
PYHIN1 (GeneID 149628),SID160758853,-0.167,78.6,-0.621,103,inactive
ADAT3 (GeneID 113179),SID160724723,-0.557,70.8,-0.822,98.3,inactive
ADAT3 (GeneID 113179),SID160724724,0.233,86.5,0.0417,95.6,inactive
ADAT3 (GeneID 113179),SID160732333,-0.053,80.8,-0.838,113,inactive
RNF10 (GeneID 9921),SID160723443,0.00333,82,-0.961,118,inactive
RNF10 (GeneID 9921),SID160723444,0.216,86.2,0.128,93.1,inactive
RNF10 (GeneID 9921),SID160723445,0.671,95.2,1.42,73.1,inactive
RNASEH2A (GeneID 10535),SID160728670,-1.09,60.2,-0.473,76.2,inactive
RNASEH2A (GeneID 10535),SID160728671,-0.464,72.7,0.244,76.1,inactive
RNASEH2A (GeneID 10535),SID160728672,-0.108,79.7,-0.156,92.8,inactive
TPST2 (GeneID 8459),SID160720090,0.823,98.2,0.0652,108,inactive
TPST2 (GeneID 8459),SID160720091,-0.663,68.7,-0.705,92.4,inactive
TPST2 (GeneID 8459),SID160720092,0.328,88.4,0.313,91,inactive
NRL (GeneID 4901),SID160778246,-0.632,69.3,-1.26,108,inactive
NRL (GeneID 4901),SID160778247,-0.171,78.5,-0.574,102,inactive
NRL (GeneID 4901),SID160778248,1.05,103,1.71,73.1,inactive
RAB41 (GeneID 347517),SID160764990,0.311,88.1,0.801,79.7,inactive
RAB41 (GeneID 347517),SID160764991,0.249,86.8,0.00607,96.9,inactive
RAB41 (GeneID 347517),SID160764992,-0.632,69.3,-0.673,92.5,inactive
TSPAN13 (GeneID 27075),SID160738327,-0.838,65.2,-0.649,86.5,inactive
TSPAN13 (GeneID 27075),SID160738328,-0.596,70,-0.513,89.6,inactive
TSPAN13 (GeneID 27075),SID160738329,-1.4,53.9,-1.28,84.4,inactive
C10orf120 (GeneID 399814),SID160766862,-0.599,70,-0.149,81.3,inactive
C10orf120 (GeneID 399814),SID160766863,-0.669,68.6,-0.854,95.9,inactive
C10orf120 (GeneID 399814),SID160766864,0.876,99.3,0.000301,111,inactive
ZNF491 (GeneID 126069),SID160756391,-0.556,70.8,-0.547,91.4,inactive
ZNF491 (GeneID 126069),SID160756392,-1.17,58.6,-1.24,90.8,inactive
ZNF491 (GeneID 126069),SID160756393,-0.529,71.4,-0.626,94,inactive
PEX5 (GeneID 5830),SID160715490,0.216,86.2,0.259,90,inactive
PEX5 (GeneID 5830),SID160715491,1.65,115,2.18,72.1,inactive
PEX5 (GeneID 5830),SID160715492,0.654,94.9,0.114,103,inactive
TBC1D20 (GeneID 128637),SID160756785,-0.79,66.2,-1.16,100,inactive
TBC1D20 (GeneID 128637),SID160756786,0.86,99,0.638,93.5,inactive
TBC1D20 (GeneID 128637),SID160756787,-0.918,63.6,-1.19,97.2,inactive
PDHA1 (GeneID 5160),SID160714044,-0.738,67.2,-0.966,96.9,inactive
PDHA1 (GeneID 5160),SID160714045,1.63,114,0.597,109,inactive
PDHA1 (GeneID 5160),SID160714046,0.304,87.9,-1.22,136,inactive
TPBG (GeneID 7162),SID160718263,-0.696,68,-0.317,82.7,inactive
TPBG (GeneID 7162),SID160718264,0.293,87.7,0.0866,95.8,inactive
TPBG (GeneID 7162),SID160718265,4.02,162,2.74,87.8,active
MXD4 (GeneID 10608),SID160728844,1.43,110,1.06,93.2,inactive
MXD4 (GeneID 10608),SID160728845,0.811,98,0.679,91.6,inactive
MXD4 (GeneID 10608),SID160728846,0.554,92.9,0.598,88.7,inactive
IL25 (GeneID 64806),SID160734056,0.856,98.9,1,84.9,inactive
IL25 (GeneID 64806),SID160748027,0.585,93.5,-0.374,115,inactive
IL25 (GeneID 64806),SID160748028,-0.634,69.3,-1.41,112,inactive
ASCC1 (GeneID 51008),SID160739837,-0.391,74.1,0.119,80.3,inactive
ASCC1 (GeneID 51008),SID160739838,2.15,125,1.09,105,inactive
ASCC1 (GeneID 51008),SID160739839,-0.271,76.5,-0.344,93.6,inactive
